No constants are given. Whether binding was seen depends on the method and setting. In cells and extracts the contact can be indirect. Here binding means that the protein was enriched with, or labelled near, the bait; the list need not be complete.
Target: RNA-binding Fox protein 1, GFP protein trap (Rbfox1^CC00511) (Drosophila (endogenous in fly thoraces))
Assay: affinity purification with mass spectrometry; about 500 mg thoraces of Rbfox1^CC00511 flies lysed in RIPA buffer with protease inhibitors, pre-cleared with Protein-G Dynabeads, immunoprecipitated with mouse anti-GFP (12A6) or IgG isotype control; beads washed in RIPA; unique SDS-PAGE bands cut and analysed by MALDI-TOF

binding: binds
B1: nonsense-mediated decay regulator Rent1 (protein, UniProt Q9VYS3 1-1180)
chain: MSVDTYAPSSALSFLDMDDNELLPGADTQPTQYDYRDFTMPSTSQSQTQNDQLEIAQRCSAGDSHPRLASITNDLADLQFEEEDDEPGSSYVKELPPHACKYCGIHDPATVVMCNNCRKWFCNGRGSTSGSHIINHLVRAKHREVTLHGEGPLGETILECYSCGVRNVFVLGFIPAKADSVVVLLCRQPCAAQNSLKDMNWDQEQWKPLIADRCFLAWLVKQPSEQGQLRARQISAAQINKLEELWKENIEATFQDLEKPGIDSEPAHVLLRYEDGYQYEKTFGPLVRLEAEYDQKLKESATQENIEVRWDVGLNKKTIAYFTLAKTDSDMKLMHGDELRLHYVGELYNPWSEIGHVIKVPDNFGDDVGLELKSSTNAPVKCTSNFTVDFIWKCTSFDRMTRALCKFAIDRNSVSNFIYSRLLGHGRADSNDEVLFRGPQPKLFSAPHLPDLNRSQVYAVKHALQRPLSLIQGPPGTGKTVTSATIVYQLVKLHGGTVLVCAPSNTAVDQLTEKIHRTNLKVVRVCAKSREAIDSPVSFLALHNQIRNMETNSELKKLQQLKDETGELSSADEKRYRNLKRAAENQLLEAADVICCTCVGAGDGRLSRVKFTSILIDESMQSTEPECMVPVVLGAKQLILVGDHCQLGPVVMCKKAARAGLSQSLFERLVVLGIRPFRLEVQYRMHPELSQFPSNFFYEGSLQNGVCAEDRRLKLDFPWPQPERPMFFLVTQGQEEIAGSGTSFLNRTEAANVEKITTRFLKAGIKPEQIGIITPYEGQRAYLVQYMQYQGSLHSRLYQEIEIASVDAFQGREKDIIIMSCVRSNERQGIGFLNDPRRLNVALTRAKFGIIIVGNPKVLAKQQLWNHLLNFYKDRKVLVEGSLNNLKESLIHFQKPKKLVNSMNIGAHFMSTIIADAKEVMVPGSIYDRSGGYGQGRQMVGQSMNGGQYGGSGGGPYGNSPLGYGTPSSNSMVGFGLGNGGNGAAGGNNNFGGAGPSWAAAHLHHDSIGYISNEHGAAALGNMPVPVGMFMNMSNIPPRFYNQHQQAIMAVKQNRAIQQQTGNFSPGNSGPGVTGVGVGRSATPGGNKKTNKLGKSRVTGGGTGGAPLTQGSSVCNAAPYSQHPMPLSLQMTQPSGFALSQQPELSQDFGQISQMDGLLSQDVAFNASGERSLNQFSQPY

From article PMC8742874
